In patent US20260356830A1, “COMPOUNDS FOR MODULATING RET PROTEIN” (Bristol-Myers Squibb Company, priority 2022, published 2026):
The structures given here were assigned with low confidence; some may be wrong.

Sequences of proteins named here, by UniProt entry; tags and fusion partners are left off.
UniProt P07949, whole entry, looked up: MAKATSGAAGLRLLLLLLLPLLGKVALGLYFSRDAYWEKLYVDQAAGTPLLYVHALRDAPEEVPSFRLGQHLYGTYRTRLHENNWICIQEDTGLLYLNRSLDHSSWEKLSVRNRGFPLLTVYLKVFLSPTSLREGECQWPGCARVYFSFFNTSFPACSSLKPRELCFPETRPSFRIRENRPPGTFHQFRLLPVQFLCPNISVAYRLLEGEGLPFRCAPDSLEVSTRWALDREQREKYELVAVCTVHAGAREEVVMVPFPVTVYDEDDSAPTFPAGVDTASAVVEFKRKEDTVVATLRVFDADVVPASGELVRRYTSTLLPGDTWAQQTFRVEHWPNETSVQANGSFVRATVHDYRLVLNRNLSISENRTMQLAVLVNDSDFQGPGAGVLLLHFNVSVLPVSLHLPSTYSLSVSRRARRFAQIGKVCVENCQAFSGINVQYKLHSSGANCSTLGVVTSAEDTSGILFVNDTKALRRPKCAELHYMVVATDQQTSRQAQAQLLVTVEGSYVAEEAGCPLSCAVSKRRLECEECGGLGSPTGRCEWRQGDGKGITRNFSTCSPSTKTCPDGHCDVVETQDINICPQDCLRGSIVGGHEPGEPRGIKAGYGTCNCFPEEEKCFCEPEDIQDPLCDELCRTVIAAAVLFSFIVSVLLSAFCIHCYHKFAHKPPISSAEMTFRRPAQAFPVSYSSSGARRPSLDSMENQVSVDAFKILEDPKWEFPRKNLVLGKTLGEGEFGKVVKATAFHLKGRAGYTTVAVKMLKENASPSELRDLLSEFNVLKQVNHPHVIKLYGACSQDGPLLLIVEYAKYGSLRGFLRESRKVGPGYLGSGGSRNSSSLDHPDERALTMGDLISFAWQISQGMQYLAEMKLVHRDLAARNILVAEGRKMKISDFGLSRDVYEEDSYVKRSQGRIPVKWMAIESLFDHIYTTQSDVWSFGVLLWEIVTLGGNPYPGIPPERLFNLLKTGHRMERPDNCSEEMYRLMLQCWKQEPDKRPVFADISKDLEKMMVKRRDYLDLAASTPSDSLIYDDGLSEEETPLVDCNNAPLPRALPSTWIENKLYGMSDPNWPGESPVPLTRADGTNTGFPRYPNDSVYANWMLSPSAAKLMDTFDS
UniProt Q16204, whole entry, looked up: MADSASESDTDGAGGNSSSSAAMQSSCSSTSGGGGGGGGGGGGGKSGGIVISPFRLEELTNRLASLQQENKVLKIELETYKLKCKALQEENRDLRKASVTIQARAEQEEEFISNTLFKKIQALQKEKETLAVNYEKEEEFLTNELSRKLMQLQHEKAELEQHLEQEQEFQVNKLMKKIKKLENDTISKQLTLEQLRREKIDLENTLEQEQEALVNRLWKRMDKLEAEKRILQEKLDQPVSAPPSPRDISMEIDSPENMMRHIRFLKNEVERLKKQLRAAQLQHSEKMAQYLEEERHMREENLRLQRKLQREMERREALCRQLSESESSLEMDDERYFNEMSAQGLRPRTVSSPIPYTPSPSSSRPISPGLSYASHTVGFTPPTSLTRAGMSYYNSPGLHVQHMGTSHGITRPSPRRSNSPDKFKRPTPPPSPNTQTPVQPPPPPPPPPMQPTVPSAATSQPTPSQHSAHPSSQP
UniProt Q96SW2, whole entry, looked up: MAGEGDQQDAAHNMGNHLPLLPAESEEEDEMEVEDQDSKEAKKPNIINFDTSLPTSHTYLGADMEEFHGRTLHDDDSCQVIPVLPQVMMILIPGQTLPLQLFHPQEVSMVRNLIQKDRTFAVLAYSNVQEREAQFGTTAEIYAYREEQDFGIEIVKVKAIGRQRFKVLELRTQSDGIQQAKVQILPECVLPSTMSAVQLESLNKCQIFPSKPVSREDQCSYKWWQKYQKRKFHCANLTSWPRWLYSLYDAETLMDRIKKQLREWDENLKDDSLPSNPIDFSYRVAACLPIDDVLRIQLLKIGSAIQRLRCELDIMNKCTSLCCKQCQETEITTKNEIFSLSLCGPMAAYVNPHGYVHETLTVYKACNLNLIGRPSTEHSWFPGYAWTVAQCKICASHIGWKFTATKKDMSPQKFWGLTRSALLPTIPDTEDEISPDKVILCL

Molecular target: CCDC6-RET (Homo sapiens, UniProt P07949+Q16204+Q96SW2)
Test: Cellular RET degradation, AlphaLISA, TPC-1 cell line
Type: cell-based

- Cell Density TPC-1/CCDC6-RET Ymax % (maximum degradation, 24 hrs): * (60%<Y≤90%)
- DC50 (read-out: Cell Density TPC-1/CCDC6-RET DC50, half-maximal degradation concentration, 24 hrs): 10 to 100 nM
SMILES: CCOc1cc(-c2ccc(N3CCC(COCCN4CCN(CCCN5CCC(c6ccc7c(c6)C(=O)N(C6CCC(=O)NC6=O)C7)CC5)CC4)(NC(=O)c4cc(F)ccc4F)CC3)nc2)c2c(C#N)cnn2c1 (centres unmarked)
